Sequences and labels used below:
B1: B-008 (chain-swapped IgG1) (antibody, V domains shown)
VH: EVQLVESGGGLIQPGGSLRLSCAASGFTVSSNYMSWVRQAPGKGLEWVSVIYSGGSTYYADSVKGRFTISRDNSKNTLYLQMNSLRAEDTAVYYCARGNPYYYGDLQVNFDYWGQGTLVTVSS
VL: QAVVTQEPSLTVSPGGTVTPTCGSSTGAVTSGNLPNWFQQKPGQAPRALIYSTSNKHSWTPARISGSLLGGKAALTLSGVQPEDEAEYYCLLYYGGAWVFGGGTKLTVL
B2: B-002 (chain-swapped IgG1) (antibody, V domains shown)
VH: B1 VH
VL: B1 VL with P20L, G23A, N33Y, L34Y, I64F
B3: B-003 (chain-swapped IgG1) (antibody, V domains shown)
VH: B1 VH with V5L, A24V
VL: B1 VL with G16E, P20L, G23A, N33Y, L34Y, K41R, H57D, I64F
B4: B-005 (chain-swapped IgG1) (antibody, V domains shown)
VH: B1 VH with V5L, A24V
VL: B1 VL
B5: B-001 (chain-swapped IgG1) (antibody, V domains shown)
VH: B1 VH with V5L, A24V
VL: B1 VL with P20L, G23A, G32A, N33Y, L34Y, I64F, E87D
B6: B-007 (chain-swapped IgG1) (antibody, V domains shown)
VH: B1 VH
VL: B1 VL with P20L, G23A, G32A, N33Y, L34Y, I64F, E87D
B7: B-006 (chain-swapped IgG1) (antibody, V domains shown)
VH: B1 VH
VL: B1 VL with G16E, P20L, G23A, N33Y, L34Y, K41R, H57D, I64F
B8: B-004 (chain-swapped IgG1) (antibody, V domains shown)
VH: B1 VH with V5L, A24V
VL: B1 VL with P20L, G23A, N33Y, L34Y, A48P, I64F, E83D, A97D
B9: A-013 (IgG1 format) (antibody, V domains shown)
VH: B1 VH
VL: B1 VL with P20L, G23A, G32A, N33Y, L34Y, I64F, E87D
B10: A-012 (IgG1 format) (antibody, V domains shown)
VH: B1 VH with V5L, A24V
VL: B1 VL with P20L, G23A, N33Y, L34Y, I64F
B11: A-035 (IgG1 format) (antibody, V domains shown)
VH: QVQLVQSGAEVKKPGASVKVSCKASGYTFTGYYMHWVRQAPGQGLEWMGWINPNSGNTGYAQKFQGRVTMTRNTSISTAYMELSSLRSEDTAVYYCARGRLERGYWYFDLWGRGTLVTVSS
VL: NFMLTQPHSVSESPGRTVTISCTRSSGSITSNYVQWYQQRPGSAPTILIYEDKERPSEVPDRFSGSIDISSNSASLTISGLKTEDEADYYCQSYGGTSQGVLFGGGTKVTVL
B12: A-022 (IgG1 format) (antibody, V domains shown)
VH: EVQLLESGPGLVKPSQTLSLTCTVSGGSISSGGYYWSWIRQHPGKGLEWIGYIYYSGSTYYNPSLKSRVTISVDTSKNQFSLKLSSVTAADTAVYYCARASRSTDYYFDYWGQGTLVTVSS
VL: QPGLTQPPSMSYGLGQTATLTCTGNRNNIGDQGAAWLQQHQGHPPKLLSYRNNNGPSGISERLSASRSGNTASLTISGLQPEDEADYYCSAWDSSLRAWVFGGGTKLTVL
B13: A-006 (IgG1 format) (antibody, V domains shown)
VH: B1 VH
VL: B1 VL with P20L, G23A, N33Y, L34Y, A48P, I64F, E83D, A97D

Numbering of substitutions follows the chain as printed. These are yes or no findings as the source states them, for the method shown. Some entries that bind do so weakly or less than the wild type.

One test has as its target His-tagged extracellular domain (ECD) of human IGSF11 (VSIG3) (human) (UniProt Q5DX21). The experiment in a line: ELISA EC50 grade, IgG1. A general note: An ELISA detects its analyte on a solid surface through an enzyme-linked reagent.
Take B1: the binding result was “binds”.
The same measure, in the same setting: as for B2, the entry is “binds”; as for B3, “binds”; as for B4, “binds”.
Same read-out and setting: the entry for B5 is “binds”.
B6: the binding result is recorded as “binds”.
Same read-out and setting: as for B7, the entry is “binds”; as for B8, “binds”.

The target of a further test is T1, IGSF11-hFc (human) (UniProt Q5DX21).
T1 sequence: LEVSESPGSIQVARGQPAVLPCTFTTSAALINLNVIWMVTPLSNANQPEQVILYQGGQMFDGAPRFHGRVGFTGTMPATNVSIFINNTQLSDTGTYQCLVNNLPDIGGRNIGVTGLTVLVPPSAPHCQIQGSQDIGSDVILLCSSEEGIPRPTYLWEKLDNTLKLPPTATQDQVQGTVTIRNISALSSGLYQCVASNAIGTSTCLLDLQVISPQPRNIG
In words: ELISA EC50 grade, IgG1.
Turning to B9, the binding entry was “binds”.
The same measure, in the same setting: as for B10, the entry is “binds”; as for B11, “binds”.
Same read-out and setting: the entry for B12 is “binds”.

For a further test, the target named is His-tagged extracellular domain (ECD) of human IGSF11 (VSIG3) (human) (UniProt Q5DX21). The experiment in a line: ELISA: IgG1-format antibody titrated on coated His-tagged IGSF11; x axis nM IgG, y axis absorbance per legend.
Turning to B13, the binding entry is on record as “binds”.
Same read-out and setting: the entry for B1 is “binds”.
Still for that read-out and setting: as for B2, the entry is “binds”; as for B3, “binds”; as for B4, “binds”.
The same measure, in the same setting: as for B5, the entry is “binds”; as for B6, “binds”; as for B7, “binds”.
As for B8, the binding result is “binds”.

The target in the next test is human IGSF11 (VSIG3) on cells (human) (UniProt Q5DX21). The experiment in a line: FACS, COLO-741 cells. On the technique in general: Flow cytometry measures light scatter and fluorescence of single cells or particles in a stream.
For the molecule B13, the binding result is on record as “binds”.

The target is the same in another test. In words: flow cytometry: assay supernatants with A-006-like ABP (20 ug/ml) stained on fresh MDA-MB-231-luc/IGSF11 cells, anti-human IgG Fc Alexa Fluor 647.
As for B13, the binding result was “binds”.

The next test has the same target. In words: FACS, MDA-MB-231-luc cells transduced with IGSF11.
Regarding B13, the binding entry is “binds”.

The target in a further test is IGSF11 ECD fused to murine-Fc (human; mouse) (UniProt Q5DX21). The experiment in a line: BLI, IGSF11-mFc on sensor. A general note: BLI is a label-free optical method that tracks binding on a fibre tip over time.
B13: the binding entry is “binds”.

Another test has as its target human IGSF11 (VSIG3) on cells (human) (UniProt Q5DX21). The experiment in a line: FACS, MDA-MB-231-luc/IGSF11 cells, competitor soluble IGSF11-ECD-His 1.56-25 ug/mL.
On to B13, for which the binding result was “binds”.

Another test shares this target. The experiment in a line: flow cytometry on MDA-MB-231-luc cells transduced with IGSF11 lentiviral vector (A) or mock transduced (B); A-006 followed by anti-human IgG-AF647.
As to B13, the binding result is listed as “binds”.

The target of another test is IGSF11 ECD fused to murine-Fc (human; mouse) (UniProt Q5DX21). In words: BLI (Octet): IGSF11 murine-Fc fusion captured on the biosensor, IgG1-format ABP in solution at three concentrations (not given); x time (s), y response (nm) per legend [Cont.) D].
Turning to B13, the binding result is recorded as “binds”.

A further test shares this target. The experiment in a line: ELISA: IgG titrated on coated murine-Fc fusion of IGSF11 ECD; x axis IgG nM, y axis absorption per legend.
Take B13: the binding entry is given as “binds”.

A further test addresses human IGSF11 (VSIG3) on cells (human) (UniProt Q5DX21). The experiment in a line: FACS staining of COLO-741 cells, which naturally express IGSF11.
With B13, the binding result was “binds”.

In a further test the target is recombinant human IGSF11 (VSIG3) extracellular domain (ECD) (human) (UniProt Q5DX21). The experiment in a line: BLI competition: biotinylated IGSF11 on streptavidin biosensor, ABP bound first, then VSIR multimer as competitor; traces Max (maximum VSIR binding), BL (baseline), SB (VSIR simultaneous binding) [Cont.) B].
For B13, the binding result is recorded as “binds”.

A further test addresses His-tagged extracellular domain (ECD) of human IGSF11 (VSIG3) (human) (UniProt Q5DX21). The experiment in a line: ELISA, IgG1.
For B1, the binding result was “binds”.
On the same count and under the same terms, as for B2, the entry is “binds”.
Consider B3, for which the binding result is “binds”.
Still for that read-out and setting: as for B4, the entry is “binds”; as for B5, “binds”; as for B6, “binds”.
Still for that read-out and setting: as for B7, the entry is “binds”.
As to B8, the binding result is listed as “binds”.

The next test has the same target. The experiment in a line: blocking ELISA: IgG pre-incubated with His-tagged IGSF11 ECD, complexes added to immobilised VSIR-Fc; y axis % remaining IGSF11 binding, x axis IgG nM per legend.
On to B13, for which the binding entry is given as “binds”.

The next test has the same target. In words: blocking ELISA: antibody pre-incubated with His-tagged IGSF11 ECD, complexes added to immobilised VSIR-Fc; y axis % remaining IGSF11 binding to VSIR, x axis nM IgG per legend.
On to B13, for which the binding result is listed as “binds”.
On the same count and under the same terms, the entry for B1 is “binds”.
For the molecule B2, the binding result is “binds”.
Same read-out and setting: the entry for B3 is “binds”; for B4 it is “binds”; for B5 it is “binds”.
Still for that read-out and setting: the entry for B6 is “binds”; for B7 it is “binds”; for B8 it is “binds”.

(Values after patent publication US20240010720A1.)
